This test concerns the target T1, Amine oxidase [flavin-containing] B (Rattus norvegicus, UniProt P19643).
T1 sequence (P19643 whole entry): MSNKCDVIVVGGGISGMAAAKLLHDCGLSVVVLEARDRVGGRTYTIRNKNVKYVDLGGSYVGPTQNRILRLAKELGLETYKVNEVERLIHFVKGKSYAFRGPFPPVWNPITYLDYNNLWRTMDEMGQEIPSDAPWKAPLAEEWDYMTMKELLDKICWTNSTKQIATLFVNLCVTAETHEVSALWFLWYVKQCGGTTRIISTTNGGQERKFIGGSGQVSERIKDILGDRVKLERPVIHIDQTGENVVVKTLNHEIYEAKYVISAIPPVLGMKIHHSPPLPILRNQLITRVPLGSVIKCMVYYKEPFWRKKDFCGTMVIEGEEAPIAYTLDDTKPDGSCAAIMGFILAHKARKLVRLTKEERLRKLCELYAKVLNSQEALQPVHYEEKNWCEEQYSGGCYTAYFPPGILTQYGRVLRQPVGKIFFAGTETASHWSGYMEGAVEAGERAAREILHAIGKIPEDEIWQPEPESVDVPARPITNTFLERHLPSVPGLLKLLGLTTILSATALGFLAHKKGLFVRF

On to `O=c1oc2cc(OCc3ccccc3)ccc2c2c1CCCC2`, for which the 50% inhibitory concentration (IC50) is 13.5 nM. The value for `O=c1cc(-c2ccccc2)c2ccc(OCc3ccccc3)cc2o1` was 3980 nM.

The values are drawn from ChEMBL document CHEMBL1137393, “Impact of species-dependent differences on screening, design, and development of MAO B inhibitors” (J Med Chem, 2006).
